Measured values taken from PubChem BioAssay AID1347426 (Functional Genomics Laboratory (NCATS/FGL), 2020).
Among all 31,000 sequences or so, about 1,400 (4.5%) were called active.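 How the source made its calls: active means median seed-adjusted z-score above 1 or below -1; inactive means the rest.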 The list shows a part of the results.

Experiment: Novel Modifiers of Survival Motor Neuron (SMN) Protein: Gene Identification via Genome-wide siRNA Screen;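 further: luminescence tracks full-length SMN protein made from the SMN2 reporter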
Conditions: HEK293T SMN2-luciferase reporter, siRNA knockdown, 72 h; actives lie on both sides
Outline: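 HEK293T cells stably expressing an SMN2 splicing/cDNA-luciferase reporter were reverse-transfected with a druggable-genome siRNA library and read by luminescence at 72 hours; hits defined by MAD score above 1.0 or below -1.0.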

Row | Sequence | median seed-adjusted z-score
1 | GAAGAACAUAGGUAAAUUUTT against PBX1 | inactive: -0.199
2 | GGACCUGCCUAAUUACCUUTT against LPCAT1 | inactive: -0.995
3 | GGCCUUUCUUUAUGCACUUTT against SGMS1 | inactive: -0.287
4 | CGGAAGGUAGUAAACCUUUTT against AMY1A | inactive: 0.272
5 | GCUCGUAAACUAGCUAAUATT against RCOR3 | inactive: 0.0446
6 | GUACCAAUACUGAUAAGAATT against SLC9A11 | inactive: -0.12
7 | AGUGCGCCCAGAAUCUAAATT against ZNF689 | inactive: 0.448
8 | GCCUCCUGUUUUGACCUAATT against THAP2 | inactive: -0.273
9 | GCCUUUCAUCAGAUCUUCUTT against DBX1 | inactive: 0.0137
10 | GAGUUAUGGUGAACCCACATT against CDKN2B | inactive: 0.0154
11 | CAUAGAUUCUGUACGGCAATT against MPP5 | inactive: 0.429
12 | GCACUGUCUUUUUCGAUGATT against VNN1 | inactive: 0.549
13 | CUAUGGAUCUAAUCGCAAATT against CS | inactive: -0.419
14 | CGGCAGUUGUAGCAGUAGATT against GMEB1 | inactive: 0.198
15 | CGUCUUCCUUGUGCGCCUATT against COL20A1 | inactive: -0.0033
16 | GUAGCAAUGUGGACAAGAUTT against NFIL3 | inactive: 0.4
17 | CGACAAGAUCAUCUACUCATT against GNA11 | inactive: -0.11
18 | CCGCUUCUAUAAGCUCUAUTT against USP11 | inactive: -0.0327
19 | CCAUCGUCAUGGAUCCAGATT against KDR | inactive: 0.0728
20 | CCUUCUUCAUGAUUCAGAATT against SLC39A8 | inactive: 0.265
21 | UGAACUUCGUGGUAAAGGATT against LZTR1 | inactive: 0.293
22 | CAACGAUUGUGCACCUGAATT against PCDHGB2 | inactive: -0.429
23 | CGUCCAUACUUACCUAAUUTT against UGT2A1 | inactive: 0.213

Row | Sequence | median seed-adjusted z-score
24 | CACUAUGGAGAAACAAUAUTT against ZNF181 | inactive: -0.154
25 | CAUCGAGACUUACCAGGUUTT against PPP2R2B | inactive: -0.252
26 | CGACAUCACCCAUUAUCCATT against NFIA | inactive: -0.268
27 | GUAUCACUCUUAGAAUCCATT against GP1BA | inactive: 0.0803
28 | GGCUUAACAUUGAACGAAUTT against CRY2 | inactive: 0.0209
29 | AAACAAUAAGAUCACUGUATT against LDHB | inactive: -0.515
30 | GCACUACGAGGACCAAGUUTT against RHBG | inactive: -0.126
31 | GGAGUGUCUGAAUCAGAGATT against HSPH1 | inactive: -0.314
32 | GCAAUGGGCUUAGUAUUCUTT against TGFBR1 | inactive: 0.226
33 | GAAAUACCUGGAUCAGUUUTT against ATP2C2 | inactive: -0.302
34 | GCAAUGUACUGGUGCGGAATT against ADCK1 | inactive: -0.177
35 | CCAACGACGUGGUGCAGAATT against CLDN14 | inactive: -0.456
36 | UCGUCUUCUUGAUUCGAAATT against TAF13 | inactive: -0.919
37 | GAGCUUUUGUUACAACUUATT against KLF6 | inactive: -0.0398
38 | CCGCGACUCUGAUGAGAAATT against PTK6 | inactive: -0.295
39 | GCAACUACCUCCAAACUCATT against HTR3B | inactive: 0.153
40 | CAGUGGAAAUAAUUACGUUTT against MDH1B | active: -1.13
41 | CAUCCAAAGUUAUCGAAAATT against APCS | inactive: 0.0494
42 | ACAUCGCCUACUUCCCACATT against ISOC2 | inactive: -0.599
43 | UCACCCUAUUACUUCCUGATT against APH1A | inactive: 0.741
44 | GCUUUAGCCGGAAAGACAATT against ZFP64 | inactive: -0.659
45 | CCUUCACGAAGGAGACAUATT against TJP2 | inactive: 0.0668
46 | GCAAGGAUUCAGAACCGGATT against RNF133 | inactive: 0

Part of the list above, in markdown.

| Row | Sequence | median seed-adjusted z-score |
| --- | --- | --- |
| 24 | CACUAUGGAGAAACAAUAUTT against ZNF181 | inactive: -0.154 |
| 30 | GCACUACGAGGACCAAGUUTT against RHBG | inactive: -0.126 |
| 32 | GCAAUGGGCUUAGUAUUCUTT against TGFBR1 | inactive: 0.226 |
| 39 | GCAACUACCUCCAAACUCATT against HTR3B | inactive: 0.153 |

(continued)

Row | Sequence | median seed-adjusted z-score
47 | CGCUUACAGAGUCACCAAATT against COL5A1 | inactive: -0.00475
48 | GAUCCUGACUUGAUAGAGATT against UBA6 | inactive: 0.0251
49 | CCAUUACACCAGCUAUACUTT against DKFZP586H2123 | inactive: -0.38
50 | GGACUGCAUGUACAAGGAUTT against ELL | inactive: -0.497
51 | CGCACUAAUUAUCAAGCUUTT against RFC1 | inactive: 0
52 | GGACGAUACCCAGAUUAUATT against CTCF | inactive: -0.0821
53 | GCACUUCAGACCUCAGUAATT against ZNF71 | inactive: -0.0193
54 | GCAGGUAAAGUUAACAAAUTT against PROZ | inactive: -0.422
55 | GGGACAUGGGAAUGCAAUATT against MSR1 | inactive: 0.0743
56 | CCACCAUCCAUGGUCAAGATT against SLC22A12 | inactive: -0.148
57 | GCGAGGAAGUACAACCGCATT against ACCN4 | inactive: -0.512
58 | CAUGUUCAAAGUACACUGATT against CTSS | inactive: 0.123
59 | UCAGGUCUCCAACACCUAUTT against TPD52L3 | inactive: 0.552
60 | GUGGGAAAGUCUAUGGAAATT against KLF9 | inactive: 0.767
61 | GCAUUGGUGUAUGGAAUUATT against SLC6A15 | inactive: 0.0939
62 | CGAUUUCGACAGAUCCUAATT against ATP6V1D | inactive: 0.594
63 | GGAUCAUGCAAGACUUUGATT against DHFR | inactive: -0.952
64 | GGGUACUAAAUUCAGCUAATT against SOAT1 | inactive: 0.409
65 | GGUCUACAGUCAGUAUUCATT against ZNF616 | inactive: -0.0874
66 | GGAUAAAGUUCUUACUCAATT against SMAD1 | inactive: -0.0282
67 | CGCCUGUUCUACGAGAAGATT against ULK1 | inactive: -0.214
68 | CAACCCAAGAAGGAAUUAATT against PAK3 | inactive: 0
